Data: patent publication US20190248901A1 (NOVELOGICS BIOTECHNOLOGY, published 2019)
No constants are given. Whether binding was seen depends on the method and setting. Some binding calls cover weakened binding; strength is not graded here. For part of these data: Where a sequence is shown, tags or fusion partners need not be part of it.

Legend:
[1] = biological target: T1, recombinant extracellular alpha-3 domain of MICA (allele 001), His-tagged, Baculovirus/Sf9 expressed (human) (UniProt Q29983); test: indirect ELISA
T1 sequence: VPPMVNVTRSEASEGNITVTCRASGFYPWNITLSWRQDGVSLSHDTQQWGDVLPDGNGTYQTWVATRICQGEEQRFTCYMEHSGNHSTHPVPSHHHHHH

[2] = biological target: T2, synthetic MICA*001 alpha-3 peptides with core sequence QQWGDVLP (human); test: Pepscan peptide array ELISA
T2 sequence (peptide): QQWGDVLP

[3] = biological target: T3, soluble MICB (sMICB) shed from prostate cancer DU-145 cells (human) (UniProt Q29980); test: subtractive immunoprecipitation from DU-145 conditioned medium with antibody on Protein G PLUS-agarose beads; remaining sMICB measured by MICB ELISA
T3 sequence (looked up): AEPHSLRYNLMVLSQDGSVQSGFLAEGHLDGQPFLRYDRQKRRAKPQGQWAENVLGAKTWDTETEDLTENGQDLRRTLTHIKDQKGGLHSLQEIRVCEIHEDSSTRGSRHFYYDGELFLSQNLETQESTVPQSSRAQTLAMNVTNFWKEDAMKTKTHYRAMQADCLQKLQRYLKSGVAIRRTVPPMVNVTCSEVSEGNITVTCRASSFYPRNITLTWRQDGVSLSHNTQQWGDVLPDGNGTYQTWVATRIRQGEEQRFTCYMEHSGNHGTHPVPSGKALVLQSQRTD

binding [1]: binds
binding [2]: binds
binding [3]: binds
B1: monoclonal antibody 5C9 (antibody, V domains shown)
VH: QVQLQQSGAELVRPGTSVKVSCKASGYAFTNYLIEWVKQRPGQGLEWIGLIYPGSGGTNYNEKFKGKATLTADKSSSTAYMQLSSLTSDDSAVYFCARIYYGNRDYGMDYWGQGTSVTVSS
VL: MTQTPLSLPVSLGDQASISCRSSQSIVHSNGNTYLEWYLQKPGQSPKLLIYKVSNRFSGVPDRFSGSGSGTDFTLKISRVEAEDLGVYYCFQGSHVPFTFGSGTKLEIK
notes: Mouse hybridoma antibody; Used as hybridoma supernatant in the screening and immunoprecipitation assays; also called mAb 5C9; antibody from hybridoma clone 5C9
